Source: ChEMBL document CHEMBL3988442, “University of Dundee, Small-Polar-MMV Screening Library” (2021).

Mtb growth Cornell: 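Whole-cell assay for inhibitors of Mycobacterium tuberculosis growth, labelled Cornell in the record; the read-out is not stated. The concentration is filed as 10 mM, unlikely as a test dose, so the dose is not known. Higher means stronger inhibition (inferred from two other growth screens of the library). Of about 53,000 compounds tested this way, about 900 (1.7%) reached 50% or more in at least one test.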
Mtb heat-shock: 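Assay on Mycobacterium tuberculosis, filed only as a heat shock assay from Cornell; the read-out is not stated. The concentration is filed as 10 mM, unlikely as a test dose, so the dose is not known. Direction is inferred from retests: higher values go with stronger inhibition. Size under these conditions: about 69,000 compounds, about 930 of them at 50% or above in at least one test.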

Each number is a percent effect as filed. How 0% and 100% were set is not recorded. Most values in the screen are low, and negative values occur. Compounds were drawn at random from those tested, without regard to their results. A dash means the value is not listed here; it may have been measured.

* O=C(NCc1nc[nH]n1)c1cc(COc2cccc(C(F)(F)F)c2)[nH]n1 : Mtb heat-shock: -146.5%
* CN(Cc1cccnc1)CC1CC12CCCC2 (configuration not stated) : Mtb growth Cornell: 18.76%; Mtb heat-shock: -17.02%
* O=S(=O)(C1CC1)N1CCn2c(Cn3cccn3)cnc2C1 : Mtb growth Cornell: 11.94%; Mtb heat-shock: 13.11%
* CCc1nc(CN2CCCC(NCc3cnc(C)s3)C2)no1 (configuration not stated) : Mtb heat-shock: -15.64%
* Cn1cc(CCNC(=O)N2CCCc3c(F)cccc32)cn1 : Mtb growth Cornell: -22.4%; Mtb heat-shock: -10.88%
* c1ccc(COc2ccccc2NC2CCOCC2)nc1 : Mtb growth Cornell: 50.88%; Mtb heat-shock: -19.98%
* Cc1ccc(C)c(S(=O)(=O)NC(=O)c2ccc(C)[nH]c2=O)c1 : Mtb heat-shock: -8.228%
* [H][C@@]12CCN(C[C@@H]1CN1CCCC1)[C@@H](CNS(=O)(=O)c1ccc(Cl)cc1)C2 : Mtb heat-shock: -23.71%
* [H][C@@]12C[C@H](C(=O)Nc3cccnc3)[C@@]([H])(CN(Cc3ccc(OC)cc3)C1)O2 : Mtb growth Cornell: 28.79%; Mtb heat-shock: 4.187%
* Cl.O[C@@H]1CN(Cc2ccc(F)c(F)c2)CC[C@H]1NCc1ccccn1 : Mtb growth Cornell: -35.88%; Mtb heat-shock: -13.15%
* CN(C)c1cccc(C2CCCN2c2nc3c(cnn3C)c(=O)[nH]2)c1 (configuration not stated) : Mtb growth Cornell: -16.67%; Mtb heat-shock: -13.39%
* Cn1ncc(NCc2cc(F)cc(F)c2)c(Cl)c1=O : Mtb heat-shock: 6.945%
* CN1CSC[C@H]1C(=O)N1CCC(Cc2ccccc2F)CC1 : Mtb heat-shock: -130.5%
* N#Cc1cccc(CN2CCCC2Cn2cccn2)c1 (configuration not stated) : Mtb heat-shock: -5.337%
* Cc1csc(N2CCCN(C(=O)Cn3cncn3)CC2)n1 : Mtb heat-shock: -9.768%
* COc1cccc(CCC2CCCN(C(C)=O)C2)c1 (configuration not stated) : Mtb growth Cornell: 19.46%; Mtb heat-shock: -3.554%
* CN(C)c1ncc(-c2ccc(C(N)=O)cc2)c(C2CNCCO2)n1 (configuration not stated) : Mtb growth Cornell: 24.85%; Mtb heat-shock: -7.189%
* [H][C@]12CC[C@]([H])(CN(c3ncccn3)C1)N(CC=C(C)C)C2=O : Mtb growth Cornell: 16.74%; Mtb heat-shock: -39.45%
* CCC(C)(NCC(=O)Nc1ccccc1)c1nc(C)cs1 (configuration not stated) : Mtb growth Cornell: 16.99%; Mtb heat-shock: -9.444%
* CN(C)Cc1cccc(-c2cccnc2C(=O)NCc2ccccn2)c1 : Mtb growth Cornell: 10.44%; Mtb heat-shock: 9.158%
* O=C(O)C(F)(F)F.[H][C@@]12CCN(CCc3ccccc3)C[C@]1([H])[C@@H](CNS(C)(=O)=O)OC2 : Mtb growth Cornell: -20.85%; Mtb heat-shock: -13.26%
* CSCc1cccc(S(=O)(=O)NCCCn2ccnc2)c1 : Mtb growth Cornell: 13.54%; Mtb heat-shock: -24.83%
* Cc1noc(C)c1C[S+]([O-])Cc1cn2cccc(C)c2n1 (configuration not stated) : Mtb heat-shock: 6.63%
* Cc1cccc(-c2ccc(C(=O)N3CCN(C(C)C)CC3)c(=O)[nH]2)c1 : Mtb growth Cornell: 26.41%; Mtb heat-shock: 7.848%
* CC(C)(C)Oc1ccccc1CNC(=O)C1CCCOC1 (configuration not stated) : Mtb growth Cornell: 7.299%; Mtb heat-shock: -19.89%

2 of the entries, repeated:

compound,Mtb growth Cornell,Mtb heat-shock
[H][C@@]12CCN(C[C@@H]1CN1CCCC1)[C@@H](CNS(=O)(=O)c1ccc(Cl)cc1)C2,-,-23.71%
O=C(O)C(F)(F)F.[H][C@@]12CCN(CCc3ccccc3)C[C@]1([H])[C@@H](CNS(C)(=O)=O)OC2,-20.85%,-13.26%